This passage reports binding results from PMC10440987, “SLG2 specifically regulates grain width through WOX11 ‐mediated cell expansion control in rice”.

Results are given in words; binding and its absence hold for the method and conditions named. Binding can be weak; no strength is given. Where a sequence is shown, tags or fusion partners need not be part of it. For part of these data: Binding seen in cells or lysates may run through a third protein.

The target of assay [1] is SLG2 (SLENDER GUY2), yeast two-hybrid fusion (rice). Briefly: two-hybrid; SLG2 as bait against a cDNA library from young panicles; coding sequences in pGADT7 or pGBKT7, co-transformed into Golden Yeast; growth on SD/-Leu-Trp-His-Ade.
Assay [2] addresses SLG2, BiFC fusion with a half of Venus YFP (rice). Briefly: split reporter; BiFC with halves of Venus YFP in rice protoplasts; confocal microscopy after 16 h at 28 °C in the dark.
A further assay addresses GST-SLG2 (rice). Briefly: pull-down; GST pull-down in vitro, GST-SLG2 or free GST as bait, MBP-WOX11 as prey; immunoblot with anti-GST and anti-MBP. (A western blot detects proteins with antibodies after separation by electrophoresis.)

B1: WOX11, yeast two-hybrid fusion (protein, UniProt Q0D3I7 1-262)
chain: MDGGHSPDRHAAAAAGEPVRSRWTPKPEQILILESIFNSGMVNPPKDETVRIRKLLERFGAVGDANVFYWFQNRRSRSRRRQRQLQAQAQAAAAAASSGSPPTASSGGLAPGHAGSPASSLGMFAHGAAGYSSSSSSSWPSSPPSVGMMMGDVDYGGGGDDLFAISRQMGYMDGGGGSSSSAAAGQHQQQQLYYSCQPATMTVFINGVATEVPRGPIDLRSMFGQDVMLVHSTGALLPANEYGILLHSLQMGESYFLVTRSS
With B1, the binding result in assay [1] was “binds”.

B2: WOX11, BiFC fusion with a half of Venus YFP (protein, UniProt Q0D3I7 1-262)
chain: B1 chain
Take B2: the binding result in assay [2] is reported as “binds”.

B3: MBP-WOX11 (protein, UniProt Q0D3I7 1-262)
chain: B1 chain
Regarding B3, the binding entry with GST-SLG2 (rice) is on record as “binds”.
